PubChem BioAssay AID1224830 – NIAID | 2016
Shown is a random part of about 18,000 deposited reagents. About 2,900 of all reagents (16%) count as active. 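Calls are made per well; low scores hint the gene aids the LPS response, high scores that it dampens it.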 Unmarked entries are inactive. Repeated entries: four replicate wells of each siRNA pool.

Assay: 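Regulators of TLR4 signalling towards TNF-alpha in macrophage-like cells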 (primary screen)
Cells: human THP-1 monocytic leukaemia cells, TNF dual-luciferase reporter clone, PMA-differentiated to macrophage-like cells
Knock-down reagent: siRNA pool against human genes, 50 nM
Time to read-out: LPS for 4 h, given about 3 days after siRNA transfection
Challenge: bacterial LPS (TLR4 ligand), 10 ng/ml
Detection: 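TNF firefly reporter luminescence divided by renilla, normalised to the plate median, then turned into a robust z-score for each replicate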
Reading the numbers: TNF reporter robust z-score: higher = stronger TNF reporter response to LPS
Call rule: 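Each well counts as active if its z-score is over 2.8 or under -1.5; controls are left without a call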

gene symbol	PubChem SID	TNF reporter robust z-score
ABCC3	SID315452766	-0.1
ABCC3	SID315452766	-0.02
ABCC3	SID315452766	-0.39
ABCC3	SID315452766	0.3
PGBD4	SID315462733	0.83
PGBD4	SID315462733	-0.92
PGBD4	SID315462733	0.51
PGBD4	SID315462733	-0.55
CHP2	SID315458774	-0.61
CHP2	SID315458774	0.95
CHP2	SID315458774	1.13
CHP2	SID315458774	1.27
PSMD7	SID315450912	-1.71 (active)
PSMD7	SID315450912	-1.5
PSMD7	SID315450912	-1.69 (active)
PSMD7	SID315450912	-1.19
ANGPTL2	SID315455252	0.51
ANGPTL2	SID315455252	2.1
ANGPTL2	SID315455252	0.04
ANGPTL2	SID315455252	1.61
PADI3	SID315456855	-1.27
PADI3	SID315456855	0.16
PADI3	SID315456855	-0.01
PADI3	SID315456855	-0.11
SARNP	SID315460331	-0.94
SARNP	SID315460331	-0.19
SARNP	SID315460331	-0.49
SARNP	SID315460331	0.3
SERBP1	SID315455683	-0.76
SERBP1	SID315455683	0.85
SERBP1	SID315455683	0.19
SERBP1	SID315455683	-0.88
C2orf66	SID315464766	0.16
C2orf66	SID315464766	-0.41
C2orf66	SID315464766	-1.03
C2orf66	SID315464766	-0.26
MTURN	SID315463330	0.68
MTURN	SID315463330	1.58
MTURN	SID315463330	-0.26
MTURN	SID315463330	0.39
MUC16	SID315461103	-1.13
MUC16	SID315461103	-0.77
MUC16	SID315461103	-1.09
MUC16	SID315461103	-0.29
TENM3	SID315457793	-0.15
TENM3	SID315457793	-0.73
TENM3	SID315457793	-0.3
TENM3	SID315457793	-0.63

Records above whose target name begins with T or t (4):
gene symbol	PubChem SID	TNF reporter robust z-score
TENM3	SID315457793	-0.15
TENM3	SID315457793	-0.73
TENM3	SID315457793	-0.3
TENM3	SID315457793	-0.63
